Test results reported in PubChem BioAssay AID2685 (National Center for Advancing Translational Sciences (NCATS), 2010).
The list shows a part of the results. Further columns of the screen follow, without active or inactive calls. The list favours compounds with an active or inconclusive main result. Words in brackets tell the shape of the fitted curve; partial curves, single points and poor fits give uncertain potencies.

Assay: qHTS Assay for Lipid Storage Modulators in Drosophila S3 Cells;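 as to cell number change: cells counted by Cell Tracker Red CMTPX staining in the red channel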
Conditions: BODIPY lipid droplet fluorescence, 18-24 h; for cell number change: measured here: cell count max response, cells fed with added oleic acid
In short: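 Drosophila S3 cells got compounds at several concentrations plus oleic acid (400 uM solution). Laser-scanning cytometry with 488 nm excitation read lipid droplets at 500-530 nm and cells at 575-640 nm. Percent activity was relative to 20 uM Triacsin C.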

[1] = measured here: lipid fluorescence (Fed channel) AC50, cells fed with added oleic acid
[2] = measured here: cell number channel AC50, cells fed with added oleic acid

SMILES | cell number change | AC50 [1] | AC50 [2]
CCCS(=O)(=O)N1CCC(C(=O)NCCc2ccccc2)CC1 | 15% | 6.51 µM [falling, single point] | –
CC(=O)/C(=N\Nc1ccc(Cl)cc1Cl)Sc1cccc2cccnc12 | -14% | – | –
O=C(COC(=O)COc1ccc2ccccc2c1)NC1CCCc2ccccc21 (stereo not given) | -33% | 5.17 µM [falling, partial curve, poor fit] | 6.51 µM [falling, partial curve, poor fit]
CCOC(=O)Cn1c(=O)oc2cc(S(=O)(=O)Nc3c(C)cc(C)cc3C)ccc21 | 45.3% | 0.116 µM [rising, full curve, poor fit] | 0.092 µM [rising, full curve]
CC(C)CN(C(=O)c1ccc(N2CCCC2=O)cc1)c1c(N)n(Cc2ccccc2)c(=O)[nH]c1=O | -10.1% | 2.31 µM [falling, single point] | –
COc1ccc(C(CNC(=O)c2ccc(OCc3ccccc3)cc2)N2CCOCC2)cc1 (stereo not given) | 41% | 10.3 µM [rising, partial curve] | 3.26 µM [rising, partial curve]
Cc1[nH]n(-c2ccccc2)c(=O)c1C=NCc1ccco1 | 15.3% | 0.13 µM [falling, full curve, poor fit] | 0.146 µM [falling, full curve, poor fit]
COc1ccc(Cl)cc1N1CC(C(=O)Nc2nccs2)CC1=O (stereo not given) | -0.807% | 1.03 µM [falling, full curve, poor fit] | –
O=C(Nc1ccc(S(=O)(=O)Nc2ncccn2)cc1)c1cccc(Br)c1 | -6.59% | – | –
Cc1ccc(N(C(=O)CNC(=O)c2ccco2)C(C(=O)NC2CCCC2)c2ccncc2)cc1C (stereo not given) | 21% | 29.1 µM [falling, single point] | –
COc1ccc(NC(=S)Nc2cccc(S(=O)(=O)N3CCCCC3)c2)cc1 | -32.9% | 29.1 µM [falling, single point] | 29.1 µM [falling, single point]
Fc1ccc(C2=Nn3c(Cc4ccccc4)nnc3SC2)cc1 | -27.9% | 6.51 µM [falling, full curve] | –
CN=C1SC(CC(=O)Nc2ccccc2F)C(=O)N1/N=C/c1ccc(O)c(OC)c1 (stereo not given) | -61.6% | – | 29.1 µM [falling, single point]
COc1cc(NC(=O)[C@@H](NC(=O)N2CCn3c2nc2ccccc23)C(C)C)cc(OC)c1 | -4.48% | – | –
O=C(Cc1cccs1)N1CCN(S(=O)(=O)c2cc(Cl)ccc2Cl)CC1 | – | 1.03 µM [rising, full curve, poor fit] | 0.58 µM [falling, single point]
COc1ccc(CN2CCC(=O)N([C@H](CO)Cc3ccccc3)CC2)cc1OC | 9.28% | 4.11 µM [falling, partial curve] | –
N#Cc1c(N)oc(-c2ccc3c(c2)OCO3)c1-c1ccc2c(c1)OCO2 | 60.4% | – | 0.146 µM [rising, full curve]
CC(C)(C)OC(=O)N1CCC(Cc2cc(-c3cccnc3)no2)(C(=O)O)CC1 | -16.1% | 6.51 µM [rising, single point] | –
CC1CCCN(C(=O)COC(=O)CNC(=O)c2sc3ccccc3c2Cl)C1 (stereo not given) | 6.85% | 0.13 µM [falling, full curve, poor fit] | –
O=S(=O)(c1ccc(Cl)cc1)N1CCN(C(=S)Nc2ccc(F)c(Cl)c2)CC1 | 16.4% | 14.6 µM [rising, partial curve] | –

SMILES | cell number change | AC50 [1] | AC50 [2]
O=C(CSc1ccccc1)Nc1ccc(S(=O)(=O)Nc2ncccn2)cc1 | 16.3% | – | –
O=C(CC1SC(N2CCCCC2)=NC1=O)Nc1cccc(C(=O)Nc2ncccc2O)c1 (stereo not given) | – | 0.103 µM [falling, full curve, poor fit] | –
O=C(Nc1cccc(C(F)(F)F)c1)c1ccc(Cn2cc(Br)cn2)o1 | 9.12% | – | –
CCc1nnc(SCC(=O)Nc2ccc3c(c2)OCO3)n1CC | 13% | – | –
COc1ccc(SCCN2CC[C@@H](C(C)(C)C)CCC2=O)cc1 | -38.9% | 0.116 µM [rising, single point] | 4.11 µM [falling, single point]
Cc1ccc(C)c(C(=O)COC(=O)c2ccc(Br)o2)c1 | 62.2% | 1.84 µM [rising, partial curve] | 1.84 µM [rising, partial curve]
CC(OC(=O)C1CC1C)C(=O)Nc1ccc(Cl)cn1 (stereo not given) | 22.5% | – | –
COc1ccnc(-n2cccc2C=O)c1C#N | -5.87% | 14.6 µM [falling, single point] | –
CC1=C(C(=O)OC(C)C)C(c2ccc(O)cc2)NC(=O)N1 (stereo not given) | -5.84% | – | –
COCCn1c(C)cc(C(=O)COC(=O)CCN2C(=O)c3ccccc3C2=O)c1C | -84.6% | 25.9 µM [falling, partial curve] | 32.6 µM [falling, partial curve, poor fit]
Cc1cc2[nH]ncc2cc1NC(N)=S | 57.2% | – | 6.51 µM [rising, partial curve, poor fit]
CCN1CCN(C(=S)Nc2cc(S(=O)(=O)N(CC)CC)ccc2C)CC1 | 179% | 14.6 µM [rising, partial curve] | 18.4 µM [rising, partial curve]
CCOc1ccccc1NCc1cc(=O)oc2cc(C)c(O)cc12 | – | 29.1 µM [falling, single point] | –
CC(=O)Nc1ccc(S(=O)(=O)N2CCN(S(=O)(=O)c3ccccc3)CC2)cc1 | 5.18% | 0.164 µM [falling, full curve, poor fit] | –
O=S(=O)(NC1C2CC3CC(C2)CC1C3)c1ccc(F)cc1 (stereo not given) | -43.8% | – | 23.1 µM [falling, partial curve]
Cc1ccc(NC(=O)C2C3C=CC4(O3)C2C(=O)N(CCCN2CCCCC2)C4C(=O)NC2CCCCC2)cc1C (stereo not given) | 9.01% | 11.6 µM [falling, single point] | –
COC(=O)c1ccccc1NC(=O)CCn1c(=O)oc2ccccc21 | 10.7% | 7.31 µM [rising, partial curve] | –
CN(C)CCNC(=O)C(c1ccccc1)c1ccccc1 | 17.2% | 6.51 µM [rising, partial curve, poor fit] | 7.31 µM [rising, single point]
CCn1c(SCC(=O)N/N=C/C(C)=C\c2ccco2)nnc1-c1ccccc1 | 1.2% | 6.51 µM [rising, partial curve, poor fit] | –
Cc1ccccc1NC(=O)CC(C)S(=O)(=O)c1ccc2c(c1)NC(=O)CO2 (stereo not given) | -11% | 2.59 µM [rising, partial curve] | –

Exported with tabs: part of the list above
SMILES	cell number change	AC50 [1]	AC50 [2]
O=S(=O)(NC1C2CC3CC(C2)CC1C3)c1ccc(F)cc1 (stereo not given)	-43.8%	–	23.1 µM [falling, partial curve]
Cc1ccc(NC(=O)C2C3C=CC4(O3)C2C(=O)N(CCCN2CCCCC2)C4C(=O)NC2CCCCC2)cc1C (stereo not given)	9.01%	11.6 µM [falling, single point]	–

More results:

SMILES | cell number change | AC50 [1] | AC50 [2]
COc1cccc(NC(=O)CN(C)C(=O)c2c(-c3c(F)cccc3Cl)noc2C)c1 | -2.28% | 10.3 µM [falling, partial curve, poor fit] | –
O=c1c2ccccc2c(-c2ccccc2)nn1Cc1ccc(Cl)cc1 | – | 0.517 µM [falling, full curve, poor fit] | –
COc1ccc(Cc2nnc(N/N=C/c3ccc(O)cc3O)[nH]c2=O)cc1OC | 14.8% | 29.1 µM [rising, single point] | 5.8 µM [rising, partial curve]
COc1ccc(NC(=O)CN(C)C(=O)Cc2ccc3c(c2)OCCO3)cc1 | 3.5% | – | –
O=C(/C=C/c1ccc(OC(F)F)cc1)Nc1cccc(S(=O)(=O)NC2=NCCCCC2)c1 | 45.4% | – | 18.4 µM [rising, partial curve]
Cc1ccccc1-c1nnn(CC(=O)N(C)CC(=O)Nc2ccccc2C(F)(F)F)n1 | -15% | – | –
CN(CC(=O)Nc1c(Cl)cccc1Cl)C(=O)c1ccc2ccccc2n1 | 11.7% | 29.1 µM [rising, single point] | –
O=C(Nc1nc2ccccc2[nH]1)c1cc2ccccc2o1 | -34.1% | – | 1.84 µM [falling, full curve, poor fit]
CCN1C(=O)/C(=C\N(C)C)NC1=S | -6.91% | – | –
CCN1CCN(C(CNS(=O)(=O)c2ccc(C)cc2)c2ccccc2)CC1 (stereo not given) | 12.4% | – | –
COC(=O)c1ccc(N=Cc2c(-c3ccccc3)[nH][nH]c2=O)cc1 | -18.5% | – | –
COc1ccc(-c2nc(-c3ccccn3)nc(N3CCN(C)CC3)c2C#N)cc1 | 9.62% | 2.31 µM [rising, full curve, poor fit] | –
COc1ccc(-c2nc(CS(=O)CC(=O)NCc3ccc(Cl)cc3)c(C)o2)cc1OC (stereo not given) | 16.1% | 5.8 µM [rising, single point] | –
Cc1ccc(S(=O)(=O)NCCc2c[nH]c3ccccc23)cc1 | 12.7% | – | 0.651 µM [rising, full curve, poor fit]
CCCN(CC(=O)Nc1ccccc1OC)C(=O)Cn1[nH]c(=O)c2ccccc2c1=O | 7.09% | 0.13 µM [falling, full curve, poor fit] | –
CC(=O)Nc1ccc(NCc2ccc(C)s2)cc1 | 15.4% | 6.51 µM [falling, partial curve, poor fit] | –
Cc1ccc2nc(SCC(=O)NC3CCCCC3)nc(=O)n2c1 | 36.2% | 1.16 µM [rising, full curve, poor fit] | 3.66 µM [rising, partial curve]
O=C(NCCc1ccccc1)C1CCCN(c2nc3ccccc3s2)C1 (stereo not given) | 32.1% | – | 0.103 µM [rising, full curve, poor fit]
CCOc1ccc(CNC(=O)C2CCN(c3nnc(C)c4c(C)n(-c5ccc(C)cc5)nc34)CC2)cc1 | 51.5% | 29.1 µM [falling, single point] | 29.1 µM [rising, single point]

Gathered by group: those above with an NH in an aromatic ring.
SMILES | cell number change | AC50 [1] | AC50 [2]
CC(C)CN(C(=O)c1ccc(N2CCCC2=O)cc1)c1c(N)n(Cc2ccccc2)c(=O)[nH]c1=O | -10.1% | 2.31 µM [falling, single point] | –
Cc1[nH]n(-c2ccccc2)c(=O)c1C=NCc1ccco1 | 15.3% | 0.13 µM [falling, full curve, poor fit] | 0.146 µM [falling, full curve, poor fit]
Cc1cc2[nH]ncc2cc1NC(N)=S | 57.2% | – | 6.51 µM [rising, partial curve, poor fit]
COc1ccc(Cc2nnc(N/N=C/c3ccc(O)cc3O)[nH]c2=O)cc1OC | 14.8% | 29.1 µM [rising, single point] | 5.8 µM [rising, partial curve]
O=C(Nc1nc2ccccc2[nH]1)c1cc2ccccc2o1 | -34.1% | – | 1.84 µM [falling, full curve, poor fit]
COC(=O)c1ccc(N=Cc2c(-c3ccccc3)[nH][nH]c2=O)cc1 | -18.5% | – | –
Cc1ccc(S(=O)(=O)NCCc2c[nH]c3ccccc23)cc1 | 12.7% | – | 0.651 µM [rising, full curve, poor fit]
CCCN(CC(=O)Nc1ccccc1OC)C(=O)Cn1[nH]c(=O)c2ccccc2c1=O | 7.09% | 0.13 µM [falling, full curve, poor fit] | –
